PubChem BioAssay AID504786 – Drosophila RNAi Screening Center | 2011

- Assay: 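Positive regulators of HIF-driven reporter output in Drosophila cells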 (primary screen)
- Cell system: Drosophila S2 cells with a stable HIF luciferase reporter
- Knock-down reagent: long dsRNA against Drosophila genes, about 0.2 µg dsRNA per well of a 384-well plate
- Duration: three days of knock-down, then 20 h of DFO before reading
- Conditions: desferrioxamine (DFO) at 100 µM, an iron chelator that mimics hypoxia, for 20 h
- Measurement: 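Firefly luciferase driven by the mouse ldh-a hypoxia-response element, measured after 20 h of 100 µM DFO; z-scores per plate, higher means more signal lost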
- Reading the numbers: z-score: higher = stronger loss of HIF reporter signal
In all, the deposit lists about 21,000 reagents; below is a random part of those with a known target gene and a result. 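Primary screen; positive scores mean lost reporter signal, so the sign may be inverted from the usual convention.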 Names joined by + are all predicted targets of the reagent.

gene knocked down | dsRNA | z-score, replicate 1 | z-score, replicate 2
Sesn | DRSC04101 | 0.1 | 0
Sesn | DRSC04102 | 0 | -0.3
Sesn | DRSC04103 | -0.4 | -0.4
CG13955 | DRSC06443 | -0.1 | -0.2
RpL22-like | DRSC04582 | -0.4 | -0.2
eIF4H2 | DRSC14582 | -0.3 | -0.7
Ts | DRSC00795 | -0.3 | -0.3
CG34338 | DRSC17535 | -0.1 | -0.3
trx | DRSC17089 | 1.1 | 0.7
CG10588 | DRSC11628 | -0.3 | 0
CG11131 | DRSC11636 | -0.2 | -0.2
Arpc4 | DRSC02917 | 0.5 | 1.6
Cyp4g1 | DRSC18459 | -0.2 | -0.7
CG42505 + CG42504 + CG31358 | DRSC15235 | -0.3 | -0.3
CG42505 + CG42504 + CG31358 | DRSC15308 | -0.2 | -0.2
CG42505 + CG42504 + CG31358 | DRSC15309 | -0.2 | -0.3
CG31365 | DRSC15610 | -0.2 | -0.4
Obp83cd | DRSC12267 | -0.3 | -0.1
PpN58A | DRSC04642 | -0.4 | -0.2
CG10175 | DRSC13628 | -0.3 | -0.2
CG10175 | DRSC14200 | -0.3 | -0.6
CG33259 | DRSC10854 | -0.3 | -0.4
CG15225 | DRSC04232 | -0.2 | -0.3
CG14937 | DRSC02419 | 0.1 | -0.3
CtsL3 | DRSC12171 | -0.4 | -0.6
APC4 | DRSC18360 | -0.3 | 0
Pif1 | DRSC00582 | -0.4 | -0.3
Cpr62Bc | DRSC08545 | -0.4 | -0.5
S-Lap5 | DRSC06732 | -0.4 | -0.4
dally | DRSC08954 | -0.3 | 0
dally | DRSC11338 | -0.3 | -0.4
CG13313 | DRSC09984 | -0.3 | -0.3
CR40354 | DRSC20923 | 0.9 | 0.3
CG11920 | DRSC14439 | 0.3 | 1.7

4 consecutive records already listed, for reference:
gene knocked down | dsRNA | z-score, replicate 1 | z-score, replicate 2
eIF4H2 | DRSC14582 | -0.3 | -0.7
Ts | DRSC00795 | -0.3 | -0.3
CG34338 | DRSC17535 | -0.1 | -0.3
trx | DRSC17089 | 1.1 | 0.7
